Results taken from PMC9633835.
These are yes or no findings as the source states them, for the method shown. In cells and extracts the contact can be indirect. Some binding calls cover weakened binding; strength is not graded here.

Chains of the proteins cited; added tags and fusions are not shown.
UniProt P23771: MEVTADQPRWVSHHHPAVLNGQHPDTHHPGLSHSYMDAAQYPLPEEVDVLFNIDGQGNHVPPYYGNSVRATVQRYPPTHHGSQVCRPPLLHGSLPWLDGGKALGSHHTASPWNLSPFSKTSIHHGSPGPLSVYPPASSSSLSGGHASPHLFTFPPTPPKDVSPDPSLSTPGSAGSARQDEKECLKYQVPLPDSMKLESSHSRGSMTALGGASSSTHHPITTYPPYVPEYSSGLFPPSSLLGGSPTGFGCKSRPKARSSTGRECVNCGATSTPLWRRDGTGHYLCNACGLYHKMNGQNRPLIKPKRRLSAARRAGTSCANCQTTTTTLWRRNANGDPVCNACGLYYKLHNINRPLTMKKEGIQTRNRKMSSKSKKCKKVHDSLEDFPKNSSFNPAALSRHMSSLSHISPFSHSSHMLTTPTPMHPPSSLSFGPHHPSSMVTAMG
UniProt Q09472: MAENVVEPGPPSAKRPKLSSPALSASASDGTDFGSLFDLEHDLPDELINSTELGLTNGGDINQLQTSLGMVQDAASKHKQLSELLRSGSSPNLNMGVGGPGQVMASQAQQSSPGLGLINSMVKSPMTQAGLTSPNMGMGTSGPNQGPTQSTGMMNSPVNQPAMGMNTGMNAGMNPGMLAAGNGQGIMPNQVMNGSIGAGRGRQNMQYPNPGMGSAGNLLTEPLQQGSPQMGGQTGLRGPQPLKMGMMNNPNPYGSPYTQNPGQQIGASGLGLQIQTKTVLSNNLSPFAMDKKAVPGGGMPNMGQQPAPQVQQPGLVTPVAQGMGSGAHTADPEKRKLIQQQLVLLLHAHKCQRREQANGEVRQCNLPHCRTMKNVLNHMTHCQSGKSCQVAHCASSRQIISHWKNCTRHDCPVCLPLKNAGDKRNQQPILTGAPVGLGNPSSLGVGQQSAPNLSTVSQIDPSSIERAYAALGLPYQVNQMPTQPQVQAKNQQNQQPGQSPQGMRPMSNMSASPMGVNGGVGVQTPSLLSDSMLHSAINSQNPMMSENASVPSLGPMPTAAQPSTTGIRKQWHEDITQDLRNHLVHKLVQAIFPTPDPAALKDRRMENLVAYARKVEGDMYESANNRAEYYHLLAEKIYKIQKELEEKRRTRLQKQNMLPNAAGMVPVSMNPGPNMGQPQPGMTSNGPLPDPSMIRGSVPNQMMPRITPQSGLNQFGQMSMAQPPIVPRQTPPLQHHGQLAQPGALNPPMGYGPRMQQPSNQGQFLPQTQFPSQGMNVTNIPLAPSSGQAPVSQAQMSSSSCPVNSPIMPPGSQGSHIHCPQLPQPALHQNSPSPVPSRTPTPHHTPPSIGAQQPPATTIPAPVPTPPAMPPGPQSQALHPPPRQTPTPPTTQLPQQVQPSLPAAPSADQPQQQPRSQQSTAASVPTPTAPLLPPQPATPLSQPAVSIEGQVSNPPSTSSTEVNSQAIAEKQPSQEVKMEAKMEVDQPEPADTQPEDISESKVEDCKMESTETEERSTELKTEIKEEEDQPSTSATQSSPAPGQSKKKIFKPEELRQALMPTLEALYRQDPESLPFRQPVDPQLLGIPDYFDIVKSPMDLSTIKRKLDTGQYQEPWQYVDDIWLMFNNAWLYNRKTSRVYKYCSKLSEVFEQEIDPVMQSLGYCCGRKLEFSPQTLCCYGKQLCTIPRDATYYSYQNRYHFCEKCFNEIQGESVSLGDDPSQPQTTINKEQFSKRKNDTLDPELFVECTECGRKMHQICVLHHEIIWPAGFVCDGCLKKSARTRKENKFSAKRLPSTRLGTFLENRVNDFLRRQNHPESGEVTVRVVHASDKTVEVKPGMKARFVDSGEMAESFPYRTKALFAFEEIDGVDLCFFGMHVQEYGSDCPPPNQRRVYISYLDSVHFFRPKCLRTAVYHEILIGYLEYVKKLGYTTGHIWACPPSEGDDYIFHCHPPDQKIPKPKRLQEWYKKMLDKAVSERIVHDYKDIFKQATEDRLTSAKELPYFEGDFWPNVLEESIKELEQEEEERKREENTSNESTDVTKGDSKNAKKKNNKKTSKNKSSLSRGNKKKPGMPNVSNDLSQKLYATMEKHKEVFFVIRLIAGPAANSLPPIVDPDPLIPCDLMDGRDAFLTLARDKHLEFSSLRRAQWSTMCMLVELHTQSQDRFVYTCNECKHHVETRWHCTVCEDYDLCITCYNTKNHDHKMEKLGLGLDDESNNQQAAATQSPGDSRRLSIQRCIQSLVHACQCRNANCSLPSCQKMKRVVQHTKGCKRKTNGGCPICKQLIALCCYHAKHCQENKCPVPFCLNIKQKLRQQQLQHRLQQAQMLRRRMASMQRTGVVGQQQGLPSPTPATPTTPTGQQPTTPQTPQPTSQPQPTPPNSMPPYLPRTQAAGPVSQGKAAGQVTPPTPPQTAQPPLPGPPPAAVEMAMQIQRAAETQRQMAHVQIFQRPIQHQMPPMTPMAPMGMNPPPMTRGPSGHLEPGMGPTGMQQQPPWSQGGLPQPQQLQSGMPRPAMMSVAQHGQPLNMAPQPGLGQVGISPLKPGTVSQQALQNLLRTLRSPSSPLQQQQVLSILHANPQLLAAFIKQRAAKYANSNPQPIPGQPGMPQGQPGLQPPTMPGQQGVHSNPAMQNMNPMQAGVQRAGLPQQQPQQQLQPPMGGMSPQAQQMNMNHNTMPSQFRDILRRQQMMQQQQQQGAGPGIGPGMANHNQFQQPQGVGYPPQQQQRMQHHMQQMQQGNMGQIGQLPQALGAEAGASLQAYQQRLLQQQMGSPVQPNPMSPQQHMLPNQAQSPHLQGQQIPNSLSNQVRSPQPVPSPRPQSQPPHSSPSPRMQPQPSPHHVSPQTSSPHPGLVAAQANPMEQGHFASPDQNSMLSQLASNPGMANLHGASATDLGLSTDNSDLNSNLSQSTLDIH

How the values were obtained:
GFP-tagged GATA-3 = GFP-tagged GATA-3 (UniProt P23771); experiment: co-IP; GFP-tagged GATA-3 and Flag-tagged P300 expressed in HEK293T cells; anti-GFP (or isotype control) immunoprecipitation, immunoblot for Flag and GFP
[1] = target: endogenous GATA-3 (human (endogenous in H9)) (UniProt P23771); experiment: co-IP; endogenous GATA-3 and P300 co-immunoprecipitated in H9 cells (other cell lines in Fig. S4B); the text also says that A-485 with MG132 did not disrupt p300/GATA-3 binding (Fig. S5D, cells not given)

| Substance | binding (GFP-tagged GATA-3) | binding [1] |
| --- | --- | --- |
| Flag-tagged p300 (from UniProt Q09472 1-2414) | binds | – |
| endogenous p300 (from UniProt Q09472 1-2414) | – | binds |
